Data as given in PubChem BioAssay AID504804 (Drosophila RNAi Screening Center, 2011).
The screen tested about 19,000 reagents; below is a random part of those that have a named target and a result. In the full data, 47 (0.25%) are marked active. 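Signals are raw, not normalised; exact z-scores behind calls not deposited; actives needed confirmation, so some wells reaching 2 SD are inactive.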 A number with no mark means an inactive call.

Aim: 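Fly genes whose loss lessens doxorubicin-driven cell death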 (primary screen)
Cells: Drosophila Kc cells
Knock-down reagent: long dsRNA against Drosophila genes, 0.5 µg dsRNA per well
Timing: 96 h (48 h knock-down, then 48 h drug)
Treatment: doxorubicin 5 µg/ml for 48 h, added 48 h after dsRNA
Measured: 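Viability measured as cellular ATP by luminescence after 48 h knock-down then 48 h doxorubicin at 5 µg/ml; unnormalised plate counts for each replicate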
Scale: raw ATP luminescence: higher = more viable cells, protection from doxorubicin
Hit rule: 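z-score of 2 or more over plate mean in both duplicates, retained only when retests and separate dsRNAs confirm the protection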

Knock-down of CG12637 [SID104197637] came out at: raw ATP luminescence, replicate 1 = 3.26e5; raw ATP luminescence, replicate 2 = 2.91e5. Ras85D (Ras oncogene at 85D) [SID104196606] scored raw ATP luminescence, replicate 1 = 49250; raw ATP luminescence, replicate 2 = 46463. Against robl37BC [SID104182264], the values are raw ATP luminescence, replicate 1 = 46283; raw ATP luminescence, replicate 2 = 34727. Depletion of CG33271 [SID104190375] resulted in: raw ATP luminescence, replicate 1 = 73357; raw ATP luminescence, replicate 2 = 47123. Depletion of CG14013 [SID104182136] resulted in: raw ATP luminescence, replicate 1 = 23140; raw ATP luminescence, replicate 2 = 31733. CG4424 [SID104195368] showed raw ATP luminescence, replicate 1 = 56300; raw ATP luminescence, replicate 2 = 49763.

Silencing of c(3)G (crossover suppressor on 3 of Gowen) [SID104195037] resulted in: SD above plate mean 2 to 3 SD above plate mean; raw ATP luminescence, replicate 1 = 77057; raw ATP luminescence, replicate 2 = 65740. Against CG14854 [SID104194770], the values are raw ATP luminescence, replicate 1 = 68390; raw ATP luminescence, replicate 2 = 61830. With knock-down of CG4080 [SID104190190], the screen gave raw ATP luminescence, replicate 1 = 37847; raw ATP luminescence, replicate 2 = 31007. Depletion of bisc (biscotti) [SID104183875] gave: raw ATP luminescence, replicate 1 = 72160; raw ATP luminescence, replicate 2 = 61717. For Mal-B1 (Maltase B1) [SID104182208], the entry reads raw ATP luminescence, replicate 1 = 55907; raw ATP luminescence, replicate 2 = 56527. With knock-down of Pde1c (Phosphodiesterase 1c) [SID104182213], the record shows raw ATP luminescence, replicate 1 = 42510; raw ATP luminescence, replicate 2 = 62793.

Pde1c (Phosphodiesterase 1c) [SID104182214] gave raw ATP luminescence, replicate 1 = 40117; raw ATP luminescence, replicate 2 = 51273. Pde1c (Phosphodiesterase 1c) [SID104182215] gave raw ATP luminescence, replicate 1 = 29227; raw ATP luminescence, replicate 2 = 54003. Silencing of Pde1c (Phosphodiesterase 1c) [SID104182216] gave: raw ATP luminescence, replicate 1 = 32047; raw ATP luminescence, replicate 2 = 49303. Silencing of Pde1c (Phosphodiesterase 1c) [SID104182217] came out at: raw ATP luminescence, replicate 1 = 35243; raw ATP luminescence, replicate 2 = 78840. Pde1c (Phosphodiesterase 1c) [SID104182218] gave raw ATP luminescence, replicate 1 = 36977; raw ATP luminescence, replicate 2 = 74113. Against CG13540 [SID104183974], the entry reads raw ATP luminescence, replicate 1 = 34447; raw ATP luminescence, replicate 2 = 61833.

An excerpt from above, reduced to “raw ATP luminescence, replicate 1”.
CG14013 [SID104182136]	23140
CG4424 [SID104195368]	56300

Continued.
With knock-down of Hnf4 (Hepatocyte nuclear factor 4) [SID104180824], the record shows raw ATP luminescence, replicate 1 = 2.75e5; raw ATP luminescence, replicate 2 = 3.02e5. For Hnf4 (Hepatocyte nuclear factor 4) [SID104183136] the deposit lists raw ATP luminescence, replicate 1 = 1.33e5; raw ATP luminescence, replicate 2 = 1.75e5. CG32647 [SID104199482] gave raw ATP luminescence, replicate 1 = 3.02e5; raw ATP luminescence, replicate 2 = 3.14e5. CG32647 [SID104199670] scored raw ATP luminescence, replicate 1 = 2.44e5; raw ATP luminescence, replicate 2 = 3.07e5. Aptx (aprataxin) [SID104195560] scored raw ATP luminescence, replicate 1 = 56190; raw ATP luminescence, replicate 2 = 67280. Eglp1 (Entomoglyceroporin 1) [SID104184294] scored raw ATP luminescence, replicate 1 = 70843; raw ATP luminescence, replicate 2 = 83787.

Depletion of CG31323 [SID104194693] came out at: raw ATP luminescence, replicate 1 = 74370; raw ATP luminescence, replicate 2 = 53410. After knock-down of CG3436 [SID104180397], the record shows raw ATP luminescence, replicate 1 = 77930; raw ATP luminescence, replicate 2 = 59893. For CG5863 [SID104195690], the entry reads raw ATP luminescence, replicate 1 = 99910; raw ATP luminescence, replicate 2 = 70550. Muc11A (Mucin 11A) [SID104199290] scored raw ATP luminescence, replicate 1 = 4.18e5; raw ATP luminescence, replicate 2 = 3.63e5. With knock-down of CG18294 [SID104189683] the results were raw ATP luminescence, replicate 1 = 54220; raw ATP luminescence, replicate 2 = 70813. For SNF4Agamma (SNF4/AMP-activated protein kinase gamma subunit) [SID104193253], the entry reads raw ATP luminescence, replicate 1 = 2.24e5; raw ATP luminescence, replicate 2 = 2.28e5.

Knock-down of SNF4Agamma (SNF4/AMP-activated protein kinase gamma subunit) [SID104193255] resulted in: raw ATP luminescence, replicate 1 = 1.99e5; raw ATP luminescence, replicate 2 = 2.12e5. After knock-down of SNF4Agamma (SNF4/AMP-activated protein kinase gamma subunit) [SID104195671], the record shows raw ATP luminescence, replicate 1 = 39170; raw ATP luminescence, replicate 2 = 71510. Against SNF4Agamma (SNF4/AMP-activated protein kinase gamma subunit) [SID104196639], the entry reads raw ATP luminescence, replicate 1 = 50793; raw ATP luminescence, replicate 2 = 48183. Knock-down of Sesn (Sestrin) [SID104183893] resulted in: raw ATP luminescence, replicate 1 = 64823; raw ATP luminescence, replicate 2 = 74340. Silencing of Sesn (Sestrin) [SID104183894] resulted in: raw ATP luminescence, replicate 1 = 58837; raw ATP luminescence, replicate 2 = 57670. Sesn (Sestrin) [SID104183895] gave raw ATP luminescence, replicate 1 = 68317; raw ATP luminescence, replicate 2 = 55683.
